For part of its entries the source gives two or more results. The list is limited to them. An entry can have further records. Results that share an entry differ, and nothing given here explains why; they may come from other doses, times, organisms or constructs than stated.
Target: LPAAT-β (Homo sapiens, UniProt O15120)
Test: secondary thin layer chromatography (TLC) assay measuring fluorescent PA
Details: read-out: IC50 (μM) (TLC assay)

Amino acid sequences for entries named in this document (tags omitted). Residues count along the entry.
UniProt O15120, 24-278 limits assumed: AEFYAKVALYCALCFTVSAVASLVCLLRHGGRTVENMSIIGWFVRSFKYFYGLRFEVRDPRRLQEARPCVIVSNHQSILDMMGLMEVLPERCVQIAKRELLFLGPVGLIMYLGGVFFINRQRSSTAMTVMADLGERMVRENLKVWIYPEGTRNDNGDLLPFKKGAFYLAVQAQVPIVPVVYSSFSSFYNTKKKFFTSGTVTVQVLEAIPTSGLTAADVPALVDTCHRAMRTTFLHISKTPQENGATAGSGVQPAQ

C=CCc1cc(F)cc(/C=N/NC(N)=S)c1O
IC50: 4.1 µM and 24 µM

From US20170027893A1, “THIOSEMICARBAZONES INHIBITORS OF LYSOPHOSPHATIDIC ACID ACYLTRANSFERASE AND USES THEREOF” (H. LEE CANCER CENTER AND RESEARCH INSTITUTE, INC., priority 2014, published 2017)
